{
  "source": "patent US20130178597A1",
  "about": "“POLYIMIDE PRECURSOR, POLYIMIDE, AND MATERIALS TO BE USED IN PRODUCING SAME” (UBE INDUSTRIES, LTD., priority 2010, published 2013)",
  "key": {"[1]": {"assay": "Light transmittance of solvent at 400 nm", "format": "physicochemical", "conditions": "light path 1 cm, water as a blank", "protocol": "Using a MCPD-300 manufactured by Otsuka Electronics Co., Ltd., and a standard cell having a light path length of 1 cm, the light transmittance of a solvent at 400 nm was measured using water as a blank."}, "[2]": {"assay": "Light transmittance of solvent at 400 nm after heating with refluxing", "format": "physicochemical", "conditions": "heated to reflux for 3 hours under nitrogen atmosphere", "protocol": "For light transmittance after heating with refluxing, measurement was carried out using a solvent that had been heated to reflux for 3 hours under nitrogen atmosphere having oxygen concentration of 200 ppm or less."}},
  "data": [
    {"compound": "CC(=O)N(C)C", "note": "[DMAc (99.99%), N,N-dimethylacetamide]", "values": [
      {"measurement": "Light Transmittance at 400 nm (solvent)", "setting": "[1]", "value": 92, "unit": "%"},
      {"measurement": "Light Transmittance at 400 nm after reflux (solvent)", "setting": "[2]", "value": 92, "unit": "%"}
    ]}
  ]
}
